In all, about 52,000 sequences went through this assay and about 210 (0.4%) were called active.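 Rule for the calls: active = gene whose silencing raises cell survival under the drug, median off-target-corrected z-score across its silencing RNAs 2 or more; inactive = the rest.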 This is one part of the list.
assay: Resistance to Poly (ADP-Ribose) Polymerase inhibitor: Gene Identification via Genome-wide siRNA Screen; conditions: mouse BRCA2 R2336H ES cells, olaparib, CellTiter-Glo viability; hits give high values
Outline: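 Genome-wide siRNA screen (3 siRNAs/gene, 20 nM) in mouse ES cells carrying hypomorphic BRCA2 R2336H; olaparib 500 nM added 48 h post-transfection, CellTiter-Glo viability 72 h later. Normalized to plate-median negative control; MAD z-scores, gene median, seed-adjusted.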

Sequence | z-score
GGUUUACAAGAGUUACAGUTT against Brpf1 | inactive: 1
GGUGAUGGUUGGGUUUCUCTT against Olfr1449 | inactive: 0.438
GGAAUUCUCCUUCCUCACUTT against Cyp21a1 | inactive: 0.0382
GGAACUGGACAAGGACGAUTT against Arhgdia | inactive: 0.486
GGAAUUAUCGCAUCUUUGATT against Sh3bp2 | inactive: 0.929
GGAUGCAGUACGAAAUUCUTT against Psmd1 | inactive: -2.63
GGACCUGACAGUUCAAAAATT against Dars | inactive: -1.16
GGCCCUCACCAUCUUUUGGTT against Olfr691 | inactive: 0.105
GCUGGACCCACACAAAAAGTT against Rhbdl4 | inactive: 0.35
GCCAUGAUGCAUUAUGUAUTT against 6720416L17Rik | inactive: -0.231
GGCUUUCUGGAAGAUACUUTT against Hrh4 | inactive: -0.527
GGUGCUUGAUUUUGUGCAGTT against Psmd13 | inactive: -2.95
GCCAAGGUGCAGAUAAGGUTT against Rhox7 | inactive: 0.0271
GGAACAUGUCUUCAAGAGATT against Stac2 | inactive: -0.00531
GGAAGGAGAGGAAAUUAAATT against Nrg3 | inactive: 0.987
GGCCCAAGUGACUAAGAACTT against Tgm1 | inactive: 1.84
GGUGCUAAGAAAAUCAAAGTT against Ryr2 | inactive: -0.251
GCUGGUGAAGAGCAUAUUCTT against Tcfcp2 | inactive: 0.54
GGGAAUCACAAGAGAAACATT against 1700052K11Rik | inactive: -1.06
GGAUAAACAGCUGAAGGUGTT against Ccs | inactive: 0.97
GGAGAAGGAGCAGAUUAAATT against Krt2-8 | inactive: 3.19
GGUCCCAUCUUUGCUUUGATT against Tbl1x | inactive: -1.66
GGCGCAGUACUAAAGACAGTT against 3110049J23Rik | inactive: -2.32
GGGAAUUUUGAAAAGGCUGTT against 3632410F03Rik | inactive: 0.39
UCAAGAAAGGUCAUGUCAGTT against Stdp1 | inactive: -0.804
GGCCAAAGGACUGAUCAUCTT against AU042671 | inactive: -0.912
GGAGGAGUUGCUAUUAGACTT against Lin28b | inactive: 0.226
GCACUUCAAUGAGCGAGAATT against Mknk1 | inactive: 0.00962
AUACGAUGUUGUGGUCAGCTT against 1110001P11Rik | inactive: 0.945

Copied from the list.
GGCUUUCUGGAAGAUACUUTT against Hrh4 – z-score: inactive: -0.527
GCACUUCAAUGAGCGAGAATT against Mknk1 – z-score: inactive: 0.00962
